The other results are listed elsewhere or left out.
Assays:
Assay in all cases: log2 fold change, soluble protein after heating vs DMSO (PISA); higher = thermal stabilisation; K562 lysate, 10 uM; active = over 0.2 and 3.5 SD of the protein, either way, in both replicates (recomputed)
[1] = compound: CS(=O)(=O)CCNCc1ccc(-c2ccc3ncnc(Nc4ccc(OCc5cccc(F)c5)c(Cl)c4)c3c2)o1 [lapatinib]
Summary of the method: (§1)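 Soluble protein was defined as the supernatant remaining after 21,000xg for 90 min, following pooling of heated aliquots and adjustment to 0.5% NP-40 at 4°C. Before that, crude K562 extract at 1 mg/mL protein in PBS pH 7.4 with 1 mM MgCl2 was treated with 10 μM compound for 30 min and heated for 3 min across 48°C-58°C. Quantification used TMTpro 16plex LC-MS/MS with channel sums equalised, and values are log-two fold changes in thermal stability relative to solvent controls from duplicates.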

Chains of the proteins cited; added tags and fusions are not shown. Lines headed by an entry give the natural chain unless they say otherwise; changes in a name come on top.
UniProt Q96B26, whole entry, looked up: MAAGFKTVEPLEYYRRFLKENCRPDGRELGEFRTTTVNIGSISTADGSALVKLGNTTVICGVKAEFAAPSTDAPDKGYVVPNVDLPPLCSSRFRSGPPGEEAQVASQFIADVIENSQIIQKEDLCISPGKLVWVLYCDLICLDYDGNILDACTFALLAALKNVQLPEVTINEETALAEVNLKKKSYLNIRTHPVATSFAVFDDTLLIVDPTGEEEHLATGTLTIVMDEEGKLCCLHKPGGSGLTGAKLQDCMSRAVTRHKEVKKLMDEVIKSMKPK
UniProt Q86X53: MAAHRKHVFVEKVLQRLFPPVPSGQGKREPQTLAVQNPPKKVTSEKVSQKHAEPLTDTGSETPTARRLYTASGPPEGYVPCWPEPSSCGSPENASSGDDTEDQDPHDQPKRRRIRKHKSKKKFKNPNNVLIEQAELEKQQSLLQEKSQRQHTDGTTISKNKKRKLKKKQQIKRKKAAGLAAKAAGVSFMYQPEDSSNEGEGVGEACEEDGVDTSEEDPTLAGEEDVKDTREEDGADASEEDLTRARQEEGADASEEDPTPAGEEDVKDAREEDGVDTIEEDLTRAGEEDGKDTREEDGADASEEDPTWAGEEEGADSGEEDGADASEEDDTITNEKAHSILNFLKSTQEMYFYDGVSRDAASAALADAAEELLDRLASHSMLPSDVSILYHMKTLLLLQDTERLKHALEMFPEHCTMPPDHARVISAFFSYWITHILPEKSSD
UniProt Q99504: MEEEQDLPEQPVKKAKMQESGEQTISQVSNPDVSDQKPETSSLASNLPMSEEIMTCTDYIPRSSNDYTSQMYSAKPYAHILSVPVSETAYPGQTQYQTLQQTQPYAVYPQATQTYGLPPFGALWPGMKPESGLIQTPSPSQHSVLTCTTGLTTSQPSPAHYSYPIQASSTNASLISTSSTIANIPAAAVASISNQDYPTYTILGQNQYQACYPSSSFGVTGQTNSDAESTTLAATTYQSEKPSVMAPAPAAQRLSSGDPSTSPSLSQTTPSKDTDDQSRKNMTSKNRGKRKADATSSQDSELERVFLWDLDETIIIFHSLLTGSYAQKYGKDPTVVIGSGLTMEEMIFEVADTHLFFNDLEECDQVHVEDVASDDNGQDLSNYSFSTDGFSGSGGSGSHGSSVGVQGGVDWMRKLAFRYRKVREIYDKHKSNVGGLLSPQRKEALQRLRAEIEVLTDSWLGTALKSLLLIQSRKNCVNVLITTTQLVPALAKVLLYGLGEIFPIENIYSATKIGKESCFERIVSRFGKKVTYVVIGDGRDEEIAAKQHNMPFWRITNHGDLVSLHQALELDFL
UniProt Q8TAV0: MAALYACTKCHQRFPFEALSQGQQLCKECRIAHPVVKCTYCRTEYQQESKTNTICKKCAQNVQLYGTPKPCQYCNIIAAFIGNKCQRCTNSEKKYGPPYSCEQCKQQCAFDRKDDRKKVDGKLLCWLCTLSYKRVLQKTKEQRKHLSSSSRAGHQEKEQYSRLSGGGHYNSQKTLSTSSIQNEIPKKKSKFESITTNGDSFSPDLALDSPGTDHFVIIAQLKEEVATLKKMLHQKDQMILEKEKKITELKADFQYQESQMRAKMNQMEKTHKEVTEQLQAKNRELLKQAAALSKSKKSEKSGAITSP
UniProt O95571: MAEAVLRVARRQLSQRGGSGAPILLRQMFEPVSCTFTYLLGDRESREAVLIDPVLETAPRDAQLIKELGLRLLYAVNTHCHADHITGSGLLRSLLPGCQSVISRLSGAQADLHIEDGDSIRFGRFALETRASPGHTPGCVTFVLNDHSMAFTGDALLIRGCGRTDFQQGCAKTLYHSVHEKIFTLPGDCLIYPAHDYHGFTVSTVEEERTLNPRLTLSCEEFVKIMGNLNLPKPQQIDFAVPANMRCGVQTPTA
UniProt Q01780: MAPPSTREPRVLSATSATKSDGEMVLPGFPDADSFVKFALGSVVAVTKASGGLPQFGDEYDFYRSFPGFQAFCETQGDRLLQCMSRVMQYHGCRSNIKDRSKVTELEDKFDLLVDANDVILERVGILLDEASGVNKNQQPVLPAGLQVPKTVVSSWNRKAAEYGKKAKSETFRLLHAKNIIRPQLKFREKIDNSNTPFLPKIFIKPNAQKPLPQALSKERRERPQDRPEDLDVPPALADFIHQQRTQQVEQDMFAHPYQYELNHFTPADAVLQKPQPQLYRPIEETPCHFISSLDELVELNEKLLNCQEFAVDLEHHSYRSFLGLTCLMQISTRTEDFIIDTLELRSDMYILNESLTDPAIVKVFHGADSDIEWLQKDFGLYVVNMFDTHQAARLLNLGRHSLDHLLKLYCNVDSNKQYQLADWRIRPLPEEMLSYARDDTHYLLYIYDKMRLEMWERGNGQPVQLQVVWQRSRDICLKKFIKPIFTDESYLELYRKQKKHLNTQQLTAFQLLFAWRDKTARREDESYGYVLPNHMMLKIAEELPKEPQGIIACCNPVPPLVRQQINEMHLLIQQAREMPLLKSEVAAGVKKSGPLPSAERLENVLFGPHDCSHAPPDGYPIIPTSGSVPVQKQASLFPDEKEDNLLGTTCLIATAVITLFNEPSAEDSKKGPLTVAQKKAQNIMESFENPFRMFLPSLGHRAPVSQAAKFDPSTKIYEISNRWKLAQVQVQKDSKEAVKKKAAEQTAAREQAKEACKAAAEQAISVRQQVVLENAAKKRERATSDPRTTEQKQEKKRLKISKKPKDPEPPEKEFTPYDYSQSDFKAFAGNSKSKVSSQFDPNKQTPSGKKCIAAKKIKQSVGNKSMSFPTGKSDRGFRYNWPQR
UniProt Q96DZ1: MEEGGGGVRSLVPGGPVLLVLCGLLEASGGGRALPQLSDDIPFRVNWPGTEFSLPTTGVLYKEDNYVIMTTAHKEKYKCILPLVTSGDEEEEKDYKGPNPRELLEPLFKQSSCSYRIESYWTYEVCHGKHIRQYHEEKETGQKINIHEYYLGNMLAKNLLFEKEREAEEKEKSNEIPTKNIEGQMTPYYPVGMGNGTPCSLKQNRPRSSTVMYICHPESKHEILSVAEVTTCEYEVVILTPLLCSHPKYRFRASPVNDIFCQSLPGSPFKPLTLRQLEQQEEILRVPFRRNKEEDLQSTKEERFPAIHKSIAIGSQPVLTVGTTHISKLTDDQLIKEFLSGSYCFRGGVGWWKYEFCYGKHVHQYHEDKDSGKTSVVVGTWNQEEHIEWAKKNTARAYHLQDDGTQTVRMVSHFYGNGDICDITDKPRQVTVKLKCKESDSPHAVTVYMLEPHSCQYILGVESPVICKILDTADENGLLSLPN
UniProt Q9UI08, whole entry, looked up: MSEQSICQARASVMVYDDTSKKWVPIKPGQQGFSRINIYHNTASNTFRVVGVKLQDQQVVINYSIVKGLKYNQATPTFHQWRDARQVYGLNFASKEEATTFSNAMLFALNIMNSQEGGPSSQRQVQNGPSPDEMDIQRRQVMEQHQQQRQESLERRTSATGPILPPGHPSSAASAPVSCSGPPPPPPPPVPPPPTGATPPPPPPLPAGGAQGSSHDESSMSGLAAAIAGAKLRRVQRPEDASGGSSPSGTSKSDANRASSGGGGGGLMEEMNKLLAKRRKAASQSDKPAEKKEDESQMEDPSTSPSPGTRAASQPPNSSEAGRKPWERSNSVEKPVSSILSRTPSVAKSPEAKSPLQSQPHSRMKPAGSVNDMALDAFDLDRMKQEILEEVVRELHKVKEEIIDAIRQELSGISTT
UniProt Q9BS26: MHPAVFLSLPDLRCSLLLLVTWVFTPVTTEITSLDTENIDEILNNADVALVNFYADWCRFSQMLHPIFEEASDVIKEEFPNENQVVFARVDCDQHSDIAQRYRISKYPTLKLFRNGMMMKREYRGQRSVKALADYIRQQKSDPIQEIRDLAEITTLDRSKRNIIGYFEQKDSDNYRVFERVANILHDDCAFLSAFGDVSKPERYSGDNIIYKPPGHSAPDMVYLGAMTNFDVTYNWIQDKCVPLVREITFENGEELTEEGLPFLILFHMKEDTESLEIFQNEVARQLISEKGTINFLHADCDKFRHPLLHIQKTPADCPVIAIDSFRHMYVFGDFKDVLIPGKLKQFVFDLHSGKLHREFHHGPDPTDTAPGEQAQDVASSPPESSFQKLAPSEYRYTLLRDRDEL
UniProt Q96E09: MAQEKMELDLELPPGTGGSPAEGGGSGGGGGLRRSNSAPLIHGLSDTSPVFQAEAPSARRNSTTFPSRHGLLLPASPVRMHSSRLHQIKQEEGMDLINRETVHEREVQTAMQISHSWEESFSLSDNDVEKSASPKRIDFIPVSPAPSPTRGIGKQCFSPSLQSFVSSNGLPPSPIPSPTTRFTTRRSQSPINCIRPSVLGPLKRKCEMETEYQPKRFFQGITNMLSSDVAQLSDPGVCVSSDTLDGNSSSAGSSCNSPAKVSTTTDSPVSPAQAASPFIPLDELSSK
UniProt Q86UY5: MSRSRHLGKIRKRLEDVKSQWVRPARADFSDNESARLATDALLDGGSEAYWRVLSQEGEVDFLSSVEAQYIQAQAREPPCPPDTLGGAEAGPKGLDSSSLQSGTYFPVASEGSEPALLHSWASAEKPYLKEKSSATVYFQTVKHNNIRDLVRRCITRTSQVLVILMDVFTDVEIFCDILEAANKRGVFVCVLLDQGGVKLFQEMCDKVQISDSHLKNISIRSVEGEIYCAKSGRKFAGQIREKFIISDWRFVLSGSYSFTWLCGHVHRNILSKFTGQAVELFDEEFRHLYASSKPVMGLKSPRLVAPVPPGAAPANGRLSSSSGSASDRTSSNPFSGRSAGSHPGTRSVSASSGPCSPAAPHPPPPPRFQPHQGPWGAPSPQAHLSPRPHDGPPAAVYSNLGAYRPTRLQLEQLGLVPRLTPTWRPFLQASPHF
UniProt Q15024, whole entry, looked up: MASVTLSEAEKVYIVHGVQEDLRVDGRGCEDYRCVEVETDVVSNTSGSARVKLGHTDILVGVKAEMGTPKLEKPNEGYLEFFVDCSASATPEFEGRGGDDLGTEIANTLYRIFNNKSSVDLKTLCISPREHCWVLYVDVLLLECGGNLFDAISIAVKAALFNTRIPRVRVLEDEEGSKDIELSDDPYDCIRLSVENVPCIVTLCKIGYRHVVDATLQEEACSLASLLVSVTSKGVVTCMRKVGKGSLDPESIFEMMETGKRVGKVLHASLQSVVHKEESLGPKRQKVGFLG
UniProt Q9UNN5: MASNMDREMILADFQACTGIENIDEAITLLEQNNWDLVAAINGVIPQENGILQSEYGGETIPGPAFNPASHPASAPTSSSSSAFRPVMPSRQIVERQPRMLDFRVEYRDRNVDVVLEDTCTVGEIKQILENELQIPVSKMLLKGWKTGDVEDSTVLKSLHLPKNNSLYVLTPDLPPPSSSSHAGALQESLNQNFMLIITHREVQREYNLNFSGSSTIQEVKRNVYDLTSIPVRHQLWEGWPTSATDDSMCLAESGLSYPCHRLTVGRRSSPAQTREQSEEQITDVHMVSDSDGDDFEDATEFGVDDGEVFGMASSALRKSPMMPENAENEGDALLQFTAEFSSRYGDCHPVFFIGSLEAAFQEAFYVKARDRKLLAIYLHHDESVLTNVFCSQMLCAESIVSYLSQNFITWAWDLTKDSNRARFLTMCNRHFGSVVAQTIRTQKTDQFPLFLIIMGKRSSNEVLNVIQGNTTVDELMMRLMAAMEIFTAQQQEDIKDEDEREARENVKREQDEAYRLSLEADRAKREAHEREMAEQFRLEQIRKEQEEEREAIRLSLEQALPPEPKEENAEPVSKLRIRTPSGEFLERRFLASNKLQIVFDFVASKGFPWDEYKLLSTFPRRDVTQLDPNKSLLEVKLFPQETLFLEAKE
UniProt Q6P587: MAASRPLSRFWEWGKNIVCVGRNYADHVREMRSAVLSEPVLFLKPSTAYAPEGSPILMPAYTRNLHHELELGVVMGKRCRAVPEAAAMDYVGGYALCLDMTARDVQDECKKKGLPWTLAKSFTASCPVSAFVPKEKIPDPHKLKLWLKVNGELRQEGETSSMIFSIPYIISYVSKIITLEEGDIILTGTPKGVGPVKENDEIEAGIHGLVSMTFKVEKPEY

[2] = compound: CS(=O)(=O)N1CCN(Cc2cc3nc(-c4cccc5[nH]ncc45)nc(N4CCOCC4)c3s2)CC1 [pictilisib]
Summary of the method: as §1

[3] = compound: C[C@@H](Oc1cc(-c2cnn(C3CCNCC3)c2)cnc1N)c1c(Cl)ccc(F)c1Cl [crizotinib]
Summary of the method: as §1

[4] = compound: C[C@H](C1=CC=C(C=C1)C(=O)NC2=C3C=CNC3=NC=C2)N
Summary of the method: as §1

[5] = compound: C[C@H](Nc1ncnc2nc[nH]c12)c1cc2cccc(Cl)c2c(=O)n1-c1ccccc1 [duvelisib]
Summary of the method: as §1

[6] = compound: Cc1cc(Nc2cc(CN3CCOCC3)c3nc(C)c(Cc4ccc(Cl)cc4F)n3n2)n[nH]1 [gandotinib]
Summary of the method: as §1

[7] = compound: Cc1cc(Nc2cc(N3CCN(C)CC3)nc(Sc3ccc(NC(=O)C4CC4)cc3)n2)n[nH]1 [tozasertib]
Summary of the method: as §1

[8] = compound: Cc1ccc(-n2nc(C(C)(C)C)cc2NC(=O)Nc2ccc(OCCN3CCOCC3)c3ccccc23)cc1 [doramapimod]
Summary of the method: as §1

[9] = compound: Cc1ccc(NC(=O)c2ccc(CN3CC[C@H](N(C)C)C3)c(C(F)(F)F)c2)cc1Nc1nccc(-c2cncnc2)n1 [bafetinib]
Summary of the method: as §1

[10] = compound: Cc1cccc(CC(=O)N2CCc3c2ccc(-c2cn(C)c4ncnc(N)c24)c3F)n1
Summary of the method: as §1

[11] = compound: Cc1cn(-c2cc(NC(=O)c3ccc(C)c(Nc4nccc(-c5cccnc5)n4)c3)cc(C(F)(F)F)c2)cn1 [nilotinib]
Summary of the method: as §1

[12] = compound: Cc1nc(Nc2n[nH]c3c2CN(C(=O)N[C@H](CN(C)C)c2ccccc2)C3(C)C)c2sccc2n1
Summary of the method: as §1

[13] = compound: Cc1nc(Nc2ncc(C(=O)Nc3c(C)cccc3Cl)s2)cc(N2CCN(CCO)CC2)n1 [dasatinib]
Summary of the method: as §1

[14] = compound: Cc1ncc(-c2ccnc(Nc3ccc(S(C)(=O)=O)cc3)n2)n1C(C)C
Summary of the method: as §1

[15] = compound: Cn1cc(-c2ccc3c(c2)CCN3C(=O)Cc2cccc(C(F)(F)F)c2)c2c(N)ncnc21
Summary of the method: as §1

[16] = compound: Cn1cc(CNCC2CCN(c3ncc(C(=O)NO)cn3)CC2)c2ccccc21 [quisinostat]
Summary of the method: as §1

[17] = compound: Cn1cncc1[C@@](N)(c1ccc(Cl)cc1)c1ccc2c(c1)c(-c1cccc(Cl)c1)cc(=O)n2C [tipifarnib]
Summary of the method: as §1

[18] = compound: NC(=O)Nc1cc(-c2cccc(F)c2)sc1C(=O)N[C@H]1CCCNC1
Summary of the method: as §1

[19] = compound: NC(=O)c1cnc(N[C@@H]2CCCC[C@@H]2N)nc1Nc1cccc(-n2nccn2)c1
Summary of the method: as §1

[20] = compound: NC1(c2ccc(-c3nc4ccn5c(=O)[nH]nc5c4cc3-c3ccccc3)cc2)CCC1
Summary of the method: as §1

Row | Target | log2 fold change [1] | log2 fold change [2] | log2 fold change [3] | log2 fold change [4] | log2 fold change [5] | log2 fold change [6] | log2 fold change [7] | log2 fold change [8] | log2 fold change [9] | log2 fold change [10] | log2 fold change [11] | log2 fold change [12] | log2 fold change [13] | log2 fold change [14] | log2 fold change [15] | log2 fold change [16] | log2 fold change [17] | log2 fold change [18] | log2 fold change [19] | log2 fold change [20]
1 | EXOSC8 (UniProt Q96B26) | inactive: 0.02 | inactive: -0.006 | inactive: -0.003 | inactive: -0.041 | inactive: 0.045 | inactive: 0.023 | inactive: 0.002 | inactive: -0.005 | inactive: 0.061 | inactive: -0.048 | inactive: 0 | inactive: 0.017 | inactive: 0.001 | inactive: -0.045 | inactive: -0.022 | inactive: -0.052 | inactive: -0.039 | inactive: -0.019 | inactive: -0.002 | inactive: -0.007
2 | ERICH1 (UniProt Q86X53) | inactive: -0.274 | inactive: -0.038 | inactive: -0.017 | inactive: 0.12 | inactive: 0.069 | inactive: -0.201 | inactive: -0.08 | inactive: -0.035 | inactive: -0.51 | inactive: -0.008 | inactive: -0.07 | inactive: -0.111 | inactive: 0.059 | inactive: 0.067 | inactive: 0.073 | inactive: -0.07 | inactive: -0.153 | inactive: -0.017 | inactive: 0.117 | inactive: 0.064
3 | EYA3 (UniProt Q99504) | inactive: 0.03 | inactive: -0.071 | inactive: -0.081 | inactive: -0.015 | inactive: 0.009 | inactive: 0.001 | inactive: 0.106 | inactive: -0.036 | inactive: -0.045 | inactive: 0.06 | inactive: 0.007 | inactive: -0.003 | inactive: -0.034 | inactive: -0.004 | inactive: -0.003 | inactive: -0.103 | inactive: -0.094 | inactive: 0.061 | inactive: 0.024 | inactive: -0.093
4 | FAM76A isoform 3 (UniProt Q8TAV0) | inactive: 0.109 | inactive: 0.068 | inactive: -0.031 | inactive: -0.073 | inactive: -0.019 | inactive: -0.04 | inactive: 0.135 | inactive: -0.094 | inactive: -0.059 | inactive: 0.071 | inactive: 0.079 | inactive: 0.162 | inactive: 0.057 | inactive: 0.038 | inactive: 0.05 | inactive: 0.164 | inactive: -0.189 | inactive: 0.034 | inactive: 0.063 | inactive: 0.013
5 | ETHE1 (UniProt O95571) | inactive: 0.049 | inactive: -0.049 | inactive: -0.022 | inactive: -0.034 | inactive: -0.011 | inactive: 0.016 | inactive: -0.06 | inactive: 0.005 | inactive: 0.038 | inactive: 0.018 | active: 0.25 | inactive: -0.124 | inactive: -0.037 | inactive: 0.095 | inactive: -0.046 | inactive: -0.015 | inactive: -0.181 | inactive: 0.055 | inactive: 0 | inactive: -0.002
6 | EXOSC10 (UniProt Q01780) | inactive: -0.019 | inactive: -0.017 | inactive: -0.025 | inactive: -0.004 | inactive: 0.013 | inactive: 0.047 | inactive: -0.055 | inactive: 0.003 | inactive: 0.017 | inactive: 0.069 | inactive: 0.012 | inactive: 0.002 | inactive: 0.034 | inactive: -0.001 | inactive: -0.006 | inactive: -0.05 | inactive: -0.016 | inactive: 0.057 | inactive: -0.002 | inactive: -0.052
7 | FAM136A (UniProt Q96C01) | inactive: 0.012 | inactive: -0.069 | inactive: 0.066 | inactive: 0.027 | inactive: 0.014 | inactive: -0.009 | inactive: 0.029 | inactive: -0.011 | inactive: -0.023 | inactive: 0 | inactive: -0.02 | inactive: -0.02 | inactive: 0.021 | inactive: -0.013 | inactive: 0.001 | inactive: -0.042 | inactive: 0.017 | inactive: 0.029 | inactive: 0.001 | inactive: -0.006
8 | ERLEC1 (UniProt Q96DZ1) | inactive: 0.014 | inactive: 0.003 | inactive: 0.012 | inactive: -0.063 | inactive: -0.009 | inactive: 0.007 | inactive: 0.013 | inactive: -0.052 | inactive: -0.024 | inactive: 0.066 | inactive: 0.018 | inactive: -0.019 | inactive: 0.009 | inactive: -0.015 | inactive: 0.054 | inactive: 0.01 | inactive: -0.026 | inactive: 0.01 | inactive: -0.002 | inactive: -0.019
9 | EVL isoform 2 (UniProt Q9UI08) | inactive: 0.013 | inactive: -0.049 | inactive: -0.037 | inactive: 0.014 | inactive: 0.066 | inactive: 0.05 | inactive: 0.028 | inactive: -0.014 | inactive: -0.051 | inactive: 0.005 | inactive: 0.178 | inactive: -0.043 | inactive: 0.082 | inactive: -0.084 | inactive: 0.058 | inactive: -0.015 | inactive: -0.01 | inactive: 0.007 | inactive: -0.006 | inactive: 0.067
10 | ERP44 (UniProt Q9BS26) | inactive: 0.009 | inactive: -0.002 | inactive: -0.003 | inactive: -0.043 | inactive: 0.021 | inactive: 0.046 | inactive: -0.052 | inactive: 0.02 | inactive: -0.026 | inactive: 0.042 | inactive: 0.027 | inactive: -0.008 | inactive: 0.002 | inactive: -0.019 | inactive: -0.003 | inactive: -0.032 | inactive: -0.022 | inactive: -0.013 | inactive: 0.006 | inactive: 0.005
11 | FAM122A (UniProt Q96E09) | inactive: 0.045 | inactive: -0.027 | inactive: -0.006 | inactive: -0.013 | inactive: 0.019 | inactive: 0.05 | inactive: -0.005 | inactive: 0.027 | inactive: 0.013 | inactive: -0.041 | inactive: -0.034 | inactive: -0.017 | inactive: 0.003 | inactive: -0.06 | inactive: -0.066 | inactive: -0.032 | inactive: 0 | inactive: 0.011 | inactive: -0.004 | inactive: -0.013
12 | FAM83A (UniProt Q86UY5) | inactive: 0.012 | inactive: 0.021 | inactive: 0.086 | inactive: -0.142 | inactive: -0.047 | inactive: 0.155 | inactive: -0.013 | inactive: 0.195 | inactive: -0.053 | inactive: 0.056 | inactive: -0.007 | inactive: -0.069 | inactive: -0.028 | inactive: -0.016 | inactive: -0.033 | inactive: -0.088 | inactive: -0.08 | inactive: 0.034 | inactive: 0.004 | inactive: -0.019
13 | EXOSC7 (UniProt Q15024) | inactive: -0.022 | inactive: 0.003 | inactive: -0.011 | inactive: -0.149 | inactive: 0.072 | inactive: 0.07 | inactive: 0.018 | inactive: 0.023 | inactive: -0.057 | inactive: 0.055 | inactive: 0.028 | inactive: -0.007 | inactive: -0.021 | inactive: 0.011 | inactive: 0.016 | inactive: 0.014 | inactive: -0.023 | inactive: 0.01 | inactive: 0.008 | inactive: -0.002
14 | FAF1 (UniProt Q9UNN5) | inactive: 0.009 | inactive: 0 | inactive: 0.042 | inactive: -0.007 | inactive: 0.034 | inactive: 0.035 | inactive: 0.017 | inactive: 0 | inactive: 0.004 | inactive: -0.011 | inactive: -0.011 | inactive: 0.003 | inactive: 0.04 | inactive: 0 | inactive: 0.016 | inactive: 0.054 | inactive: 0.002 | inactive: -0.009 | inactive: -0.003 | inactive: -0.005
15 | FAHD1 (UniProt Q6P587) | inactive: 0 | inactive: -0.02 | inactive: -0.164 | inactive: -0.297 | inactive: 0.067 | inactive: 0.335 | inactive: 0.018 | inactive: -0.041 | inactive: 0.016 | inactive: 0.224 | inactive: 0.055 | inactive: -0.027 | inactive: 0.028 | inactive: 0 | inactive: -0.149 | inactive: -0.296 | inactive: 0.022 | inactive: 0.073 | inactive: -0.019 | inactive: -0.093
16 | ERVK3-1, A0A0U1RQV1 | inactive: 0.007 | inactive: -0.015 | inactive: -0.041 | inactive: -0.23 | inactive: -0.012 | inactive: 0.152 | inactive: -0.097 | inactive: 0.022 | inactive: 0.03 | inactive: 0.097 | inactive: 0.02 | inactive: 0.006 | inactive: -0.068 | inactive: -0.028 | inactive: -0.096 | inactive: -0.088 | inactive: 0.002 | inactive: 0.005 | inactive: -0.019 | inactive: -0.049

Whole records from above. Values in the order: log2 fold change [1]	log2 fold change [2]	log2 fold change [3]	log2 fold change [4]	log2 fold change [5]	log2 fold change [6]	log2 fold change [7]	log2 fold change [8]	log2 fold change [9]	log2 fold change [10]	log2 fold change [11]	log2 fold change [12]	log2 fold change [13]	log2 fold change [14]	log2 fold change [15]	log2 fold change [16]	log2 fold change [17]	log2 fold change [18]	log2 fold change [19]	log2 fold change [20]
ETHE1 (UniProt O95571) is listed with inactive: 0.049	inactive: -0.049	inactive: -0.022	inactive: -0.034	inactive: -0.011	inactive: 0.016	inactive: -0.06	inactive: 0.005	inactive: 0.038	inactive: 0.018	active: 0.25	inactive: -0.124	inactive: -0.037	inactive: 0.095	inactive: -0.046	inactive: -0.015	inactive: -0.181	inactive: 0.055	inactive: 0	inactive: -0.002
EXOSC10 (UniProt Q01780) is listed with inactive: -0.019	inactive: -0.017	inactive: -0.025	inactive: -0.004	inactive: 0.013	inactive: 0.047	inactive: -0.055	inactive: 0.003	inactive: 0.017	inactive: 0.069	inactive: 0.012	inactive: 0.002	inactive: 0.034	inactive: -0.001	inactive: -0.006	inactive: -0.05	inactive: -0.016	inactive: 0.057	inactive: -0.002	inactive: -0.052

From the supplement of paper PMC10849652
